Assay results taken from US20040096922A1.
Results are given in words; binding and its absence hold for the method and conditions named. In cells and extracts the contact can be indirect. Some entries that bind do so weakly or less than the wild type.

Key:
[1] = target: T1, Endogenous inversin in mouse kidney (mouse) (UniProt O89019); test: co-immunoprecipitation from mouse kidney tissue lysate with anti-nephrocystin antisera
T1 sequence (looked up): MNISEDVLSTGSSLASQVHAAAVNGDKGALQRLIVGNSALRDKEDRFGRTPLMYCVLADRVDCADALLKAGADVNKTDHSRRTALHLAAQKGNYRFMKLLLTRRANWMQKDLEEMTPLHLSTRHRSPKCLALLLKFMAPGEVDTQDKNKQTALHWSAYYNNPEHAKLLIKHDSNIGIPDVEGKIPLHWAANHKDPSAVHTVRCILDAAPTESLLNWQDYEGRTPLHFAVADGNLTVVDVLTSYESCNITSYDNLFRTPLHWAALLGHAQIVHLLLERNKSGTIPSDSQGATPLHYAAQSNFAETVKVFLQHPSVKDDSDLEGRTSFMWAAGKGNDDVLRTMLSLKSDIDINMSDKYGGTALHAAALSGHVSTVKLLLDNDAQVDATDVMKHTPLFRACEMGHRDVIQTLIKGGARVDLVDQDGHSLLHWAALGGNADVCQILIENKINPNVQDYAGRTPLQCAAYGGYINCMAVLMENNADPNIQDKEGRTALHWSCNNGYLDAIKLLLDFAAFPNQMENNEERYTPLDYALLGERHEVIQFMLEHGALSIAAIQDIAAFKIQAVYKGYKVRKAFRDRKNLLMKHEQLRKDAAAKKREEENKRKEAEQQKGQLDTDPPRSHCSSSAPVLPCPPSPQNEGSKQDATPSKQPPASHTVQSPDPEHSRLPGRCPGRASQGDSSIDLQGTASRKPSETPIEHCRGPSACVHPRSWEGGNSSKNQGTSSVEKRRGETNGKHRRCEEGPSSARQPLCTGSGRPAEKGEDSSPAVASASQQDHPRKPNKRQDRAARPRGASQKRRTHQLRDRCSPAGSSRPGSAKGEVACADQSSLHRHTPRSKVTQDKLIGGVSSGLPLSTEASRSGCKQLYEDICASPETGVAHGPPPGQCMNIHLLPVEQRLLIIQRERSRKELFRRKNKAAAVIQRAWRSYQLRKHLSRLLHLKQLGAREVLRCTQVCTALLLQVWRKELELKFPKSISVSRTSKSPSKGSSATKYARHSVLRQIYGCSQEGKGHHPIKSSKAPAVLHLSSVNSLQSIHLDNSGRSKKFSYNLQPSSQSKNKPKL

[2] = target: T1, Endogenous inversin in mouse kidney (mouse); test: co-immunoprecipitation from mouse tissue (figure legend)

- binding [1]: binds
- binding [2]: binds
B1: Endogenous nephrocystin in mouse kidney (protein, UniProt Q9QY53 1-687, looked up)
chain: MLARRPRDPLQALRRRGQELKLQVDSLVTESQLTGALEPSKRREIYQRCIQLKQAVDENKNTLQKLNKADEAAPVGNYEQRKEEEHSLLEKLACQLQELAVSISRKDALKVEAHSDKEEDDTTEDDEEETGGEEEESEGDGEGKQEQASPKQAETETVTYIALGDFAAQQTGDLTFKKGDVLHIIEKKPDGWWLAKDAEGVEGLIPRTYLEPYNKEDKLESSEGSEEGGEEDGEEDVEVVDETADGAQVKQRTDSHWSAVRKAISEQINTVDVLATMGAIPAGFRPSTLSQLLDEAGNQFRASYFLQPELTTSQLAFRDLTWDAKAGTIMSRPSRVSLILTLWSCKMIPLPGTSIQVLSRHIRLCLFDGSKVLSNIHTVRAVWQPKKPKTWTFSPQVTGILPCLLDGDCFIRSNSSTPDLGILFELGISYIRNSTGERGELSCGWVFLKLFDASGVPIPAKTYELFLNGGTPYEKGVEVDPSVSRRAQGSVFRQMISVRRQPQLLVKLRSLNRRSRAMLSLLPETLVGSMCSAHLLIFYRQILGDVLLRDRTNLQSADLISHPVLATFPLLLEQPDVMDALRSSWSEKESTLKRAEKRDKELLKAEFLLVYHDCVLPLLHSTLLPPFRWAEEETEAARWKAIADFLKQSRENEGSLKALLSPDGVHKPFDLSEQTFDFLGEIRKNSG
